Test results as given in the supplement of paper PMC10849652.
This is one part of the list.

Sequences of proteins named here, by UniProt entry; tags and fusion partners are left off. A change or cut given only in a name is not applied to a line headed by its entry.
UniProt O75586: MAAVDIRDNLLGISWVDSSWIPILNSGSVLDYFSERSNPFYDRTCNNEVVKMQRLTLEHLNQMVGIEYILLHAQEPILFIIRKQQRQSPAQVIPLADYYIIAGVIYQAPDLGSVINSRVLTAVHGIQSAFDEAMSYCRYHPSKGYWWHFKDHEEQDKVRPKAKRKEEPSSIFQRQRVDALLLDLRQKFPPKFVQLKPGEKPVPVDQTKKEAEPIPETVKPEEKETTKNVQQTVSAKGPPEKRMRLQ
UniProt Q9NWA0: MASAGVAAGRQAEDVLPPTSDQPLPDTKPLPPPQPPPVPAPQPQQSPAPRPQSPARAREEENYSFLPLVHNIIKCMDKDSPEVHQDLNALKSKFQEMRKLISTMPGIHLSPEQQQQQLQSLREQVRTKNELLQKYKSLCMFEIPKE
UniProt Q7L590: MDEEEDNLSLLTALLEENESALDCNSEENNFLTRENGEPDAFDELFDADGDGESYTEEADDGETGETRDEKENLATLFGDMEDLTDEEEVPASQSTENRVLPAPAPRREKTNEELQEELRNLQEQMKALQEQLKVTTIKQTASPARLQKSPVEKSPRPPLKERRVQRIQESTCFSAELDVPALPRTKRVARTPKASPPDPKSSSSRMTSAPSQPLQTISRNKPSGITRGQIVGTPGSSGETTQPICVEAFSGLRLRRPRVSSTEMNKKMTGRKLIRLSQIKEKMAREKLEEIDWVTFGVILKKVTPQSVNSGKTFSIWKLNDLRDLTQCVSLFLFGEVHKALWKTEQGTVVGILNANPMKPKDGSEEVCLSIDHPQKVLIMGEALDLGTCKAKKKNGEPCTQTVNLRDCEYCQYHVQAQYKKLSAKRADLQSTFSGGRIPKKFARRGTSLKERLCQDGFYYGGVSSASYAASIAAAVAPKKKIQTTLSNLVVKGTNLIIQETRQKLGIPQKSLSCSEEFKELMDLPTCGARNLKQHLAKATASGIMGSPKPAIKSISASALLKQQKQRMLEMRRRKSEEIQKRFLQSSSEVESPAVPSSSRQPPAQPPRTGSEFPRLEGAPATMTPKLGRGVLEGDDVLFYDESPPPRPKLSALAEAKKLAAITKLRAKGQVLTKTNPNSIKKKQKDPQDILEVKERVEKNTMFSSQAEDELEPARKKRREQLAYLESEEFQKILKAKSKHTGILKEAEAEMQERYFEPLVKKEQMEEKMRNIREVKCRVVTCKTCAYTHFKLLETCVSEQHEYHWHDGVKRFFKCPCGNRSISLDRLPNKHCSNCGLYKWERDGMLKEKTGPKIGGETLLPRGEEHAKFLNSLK
UniProt Q8NBP5: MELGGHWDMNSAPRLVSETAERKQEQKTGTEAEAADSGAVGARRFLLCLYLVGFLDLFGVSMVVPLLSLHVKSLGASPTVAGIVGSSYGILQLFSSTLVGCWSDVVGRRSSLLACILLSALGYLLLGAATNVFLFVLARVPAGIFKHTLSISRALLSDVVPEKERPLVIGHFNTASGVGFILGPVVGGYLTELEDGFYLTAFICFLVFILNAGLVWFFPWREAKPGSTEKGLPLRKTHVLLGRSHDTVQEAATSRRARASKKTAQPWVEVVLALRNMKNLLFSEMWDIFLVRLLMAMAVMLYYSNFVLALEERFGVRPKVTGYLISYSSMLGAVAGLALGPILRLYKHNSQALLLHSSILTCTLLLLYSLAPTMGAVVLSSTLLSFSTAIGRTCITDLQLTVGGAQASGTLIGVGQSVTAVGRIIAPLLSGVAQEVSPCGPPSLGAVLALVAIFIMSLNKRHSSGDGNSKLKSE
UniProt Q9H1U4: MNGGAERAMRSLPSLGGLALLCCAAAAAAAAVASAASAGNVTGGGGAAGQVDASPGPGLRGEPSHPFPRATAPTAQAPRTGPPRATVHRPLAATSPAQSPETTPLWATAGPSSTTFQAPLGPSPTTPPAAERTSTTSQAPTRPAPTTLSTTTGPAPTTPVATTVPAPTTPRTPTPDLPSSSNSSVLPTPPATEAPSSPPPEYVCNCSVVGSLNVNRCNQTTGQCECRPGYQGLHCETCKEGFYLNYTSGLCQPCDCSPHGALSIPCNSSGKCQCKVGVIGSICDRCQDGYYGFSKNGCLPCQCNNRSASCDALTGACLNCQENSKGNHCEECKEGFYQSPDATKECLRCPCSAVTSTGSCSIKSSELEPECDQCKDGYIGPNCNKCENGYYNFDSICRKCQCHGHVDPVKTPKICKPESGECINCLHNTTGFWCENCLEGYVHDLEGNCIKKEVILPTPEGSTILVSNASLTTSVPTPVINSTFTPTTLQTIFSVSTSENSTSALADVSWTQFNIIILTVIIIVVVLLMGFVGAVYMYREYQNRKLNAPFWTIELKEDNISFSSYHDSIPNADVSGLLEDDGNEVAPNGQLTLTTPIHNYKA
UniProt Q71F56: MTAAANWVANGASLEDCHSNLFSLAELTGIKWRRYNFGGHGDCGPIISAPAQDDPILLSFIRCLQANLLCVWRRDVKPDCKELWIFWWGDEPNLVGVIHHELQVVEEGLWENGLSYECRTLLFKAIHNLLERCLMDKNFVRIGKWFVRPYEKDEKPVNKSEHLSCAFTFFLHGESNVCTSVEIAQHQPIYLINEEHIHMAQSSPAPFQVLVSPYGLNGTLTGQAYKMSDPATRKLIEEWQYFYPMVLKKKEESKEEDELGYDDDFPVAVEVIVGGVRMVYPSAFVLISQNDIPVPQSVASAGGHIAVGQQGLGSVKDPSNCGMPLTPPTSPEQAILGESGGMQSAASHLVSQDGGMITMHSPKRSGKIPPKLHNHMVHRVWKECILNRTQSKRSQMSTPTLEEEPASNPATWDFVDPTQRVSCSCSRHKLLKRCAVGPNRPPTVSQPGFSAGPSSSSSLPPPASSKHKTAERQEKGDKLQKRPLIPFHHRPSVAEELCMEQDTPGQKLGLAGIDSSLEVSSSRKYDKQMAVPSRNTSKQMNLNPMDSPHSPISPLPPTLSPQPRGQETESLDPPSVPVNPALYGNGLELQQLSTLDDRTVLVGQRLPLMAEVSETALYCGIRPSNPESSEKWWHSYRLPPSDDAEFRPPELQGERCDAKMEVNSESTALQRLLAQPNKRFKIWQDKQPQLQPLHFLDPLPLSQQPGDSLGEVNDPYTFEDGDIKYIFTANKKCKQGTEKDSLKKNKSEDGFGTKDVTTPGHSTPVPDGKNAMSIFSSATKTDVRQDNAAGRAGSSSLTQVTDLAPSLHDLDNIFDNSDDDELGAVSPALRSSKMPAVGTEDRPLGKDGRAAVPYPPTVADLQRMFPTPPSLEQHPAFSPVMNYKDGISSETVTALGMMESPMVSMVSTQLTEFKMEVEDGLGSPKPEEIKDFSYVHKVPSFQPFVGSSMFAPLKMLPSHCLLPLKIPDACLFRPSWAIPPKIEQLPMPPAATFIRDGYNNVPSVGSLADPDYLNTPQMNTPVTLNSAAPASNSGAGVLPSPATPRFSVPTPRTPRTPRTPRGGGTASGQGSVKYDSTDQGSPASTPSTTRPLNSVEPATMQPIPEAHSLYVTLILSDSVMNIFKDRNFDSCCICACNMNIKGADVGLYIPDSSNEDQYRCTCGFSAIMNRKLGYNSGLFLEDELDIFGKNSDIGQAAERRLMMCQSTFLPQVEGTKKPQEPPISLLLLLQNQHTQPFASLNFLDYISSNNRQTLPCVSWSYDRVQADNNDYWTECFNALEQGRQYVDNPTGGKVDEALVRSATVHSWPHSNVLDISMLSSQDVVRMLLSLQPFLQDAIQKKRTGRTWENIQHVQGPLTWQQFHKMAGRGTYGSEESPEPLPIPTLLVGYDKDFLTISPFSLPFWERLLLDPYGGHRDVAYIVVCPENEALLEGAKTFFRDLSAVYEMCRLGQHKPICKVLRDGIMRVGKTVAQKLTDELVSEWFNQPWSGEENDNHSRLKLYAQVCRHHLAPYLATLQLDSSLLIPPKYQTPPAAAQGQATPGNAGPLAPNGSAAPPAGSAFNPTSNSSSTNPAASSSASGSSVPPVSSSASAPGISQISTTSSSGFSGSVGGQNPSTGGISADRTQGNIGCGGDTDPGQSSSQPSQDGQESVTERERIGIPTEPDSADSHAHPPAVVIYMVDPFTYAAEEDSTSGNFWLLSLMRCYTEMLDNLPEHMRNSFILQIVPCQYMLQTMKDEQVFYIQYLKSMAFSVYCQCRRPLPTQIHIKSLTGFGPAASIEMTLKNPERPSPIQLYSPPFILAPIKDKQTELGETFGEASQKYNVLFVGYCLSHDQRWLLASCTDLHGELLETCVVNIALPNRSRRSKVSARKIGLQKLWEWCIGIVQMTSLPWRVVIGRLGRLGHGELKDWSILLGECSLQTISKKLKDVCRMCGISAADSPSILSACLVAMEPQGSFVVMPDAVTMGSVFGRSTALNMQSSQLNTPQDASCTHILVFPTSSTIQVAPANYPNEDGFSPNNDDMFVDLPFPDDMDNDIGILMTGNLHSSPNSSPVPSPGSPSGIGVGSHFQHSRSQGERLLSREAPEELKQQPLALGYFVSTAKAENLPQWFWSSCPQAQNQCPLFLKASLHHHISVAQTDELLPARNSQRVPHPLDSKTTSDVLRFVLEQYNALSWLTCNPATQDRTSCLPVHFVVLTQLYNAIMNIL
UniProt Q8TDD5: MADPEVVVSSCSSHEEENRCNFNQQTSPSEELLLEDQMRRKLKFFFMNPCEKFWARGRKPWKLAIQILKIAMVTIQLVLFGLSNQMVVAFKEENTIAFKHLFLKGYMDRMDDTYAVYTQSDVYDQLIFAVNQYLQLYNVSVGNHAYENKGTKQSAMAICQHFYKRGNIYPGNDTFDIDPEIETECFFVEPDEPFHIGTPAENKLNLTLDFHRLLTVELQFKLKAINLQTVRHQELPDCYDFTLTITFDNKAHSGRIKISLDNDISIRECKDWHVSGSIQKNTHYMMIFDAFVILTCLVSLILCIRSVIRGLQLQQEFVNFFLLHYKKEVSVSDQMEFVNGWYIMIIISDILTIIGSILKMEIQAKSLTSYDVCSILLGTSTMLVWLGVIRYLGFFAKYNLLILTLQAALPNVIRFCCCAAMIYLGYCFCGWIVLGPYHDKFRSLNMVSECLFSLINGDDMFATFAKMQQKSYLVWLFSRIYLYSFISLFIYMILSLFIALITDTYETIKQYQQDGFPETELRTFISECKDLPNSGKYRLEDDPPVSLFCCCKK
UniProt Q9Y6X3: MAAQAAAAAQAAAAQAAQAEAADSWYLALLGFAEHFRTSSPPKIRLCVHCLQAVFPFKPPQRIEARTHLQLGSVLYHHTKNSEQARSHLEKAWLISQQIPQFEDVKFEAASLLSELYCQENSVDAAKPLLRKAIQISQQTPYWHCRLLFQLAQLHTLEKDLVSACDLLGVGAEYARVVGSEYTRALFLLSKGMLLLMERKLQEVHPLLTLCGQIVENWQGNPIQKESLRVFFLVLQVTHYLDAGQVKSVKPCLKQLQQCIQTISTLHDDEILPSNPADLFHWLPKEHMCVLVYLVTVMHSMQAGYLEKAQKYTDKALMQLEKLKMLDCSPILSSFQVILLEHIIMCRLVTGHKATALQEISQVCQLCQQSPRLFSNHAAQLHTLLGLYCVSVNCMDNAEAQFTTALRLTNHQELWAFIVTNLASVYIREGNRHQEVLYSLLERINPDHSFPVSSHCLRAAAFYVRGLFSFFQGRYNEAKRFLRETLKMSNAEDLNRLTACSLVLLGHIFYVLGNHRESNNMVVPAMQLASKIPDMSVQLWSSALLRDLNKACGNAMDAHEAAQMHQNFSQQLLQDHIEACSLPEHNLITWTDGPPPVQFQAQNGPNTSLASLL
UniProt Q13503: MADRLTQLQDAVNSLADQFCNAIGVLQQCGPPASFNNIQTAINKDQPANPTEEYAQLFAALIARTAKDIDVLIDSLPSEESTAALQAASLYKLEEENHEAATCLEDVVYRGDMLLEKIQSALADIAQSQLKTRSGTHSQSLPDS
UniProt Q5VZF2: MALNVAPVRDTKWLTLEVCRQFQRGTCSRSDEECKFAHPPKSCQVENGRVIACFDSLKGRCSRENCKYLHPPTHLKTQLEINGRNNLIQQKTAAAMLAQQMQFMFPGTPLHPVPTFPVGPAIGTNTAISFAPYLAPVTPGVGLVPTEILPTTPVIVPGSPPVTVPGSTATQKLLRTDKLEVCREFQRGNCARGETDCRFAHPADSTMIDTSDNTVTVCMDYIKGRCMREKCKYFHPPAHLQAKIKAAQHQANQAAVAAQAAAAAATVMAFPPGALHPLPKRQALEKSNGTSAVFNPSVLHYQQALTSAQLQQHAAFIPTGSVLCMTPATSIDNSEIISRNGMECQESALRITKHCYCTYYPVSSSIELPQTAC
UniProt Q9H1A3: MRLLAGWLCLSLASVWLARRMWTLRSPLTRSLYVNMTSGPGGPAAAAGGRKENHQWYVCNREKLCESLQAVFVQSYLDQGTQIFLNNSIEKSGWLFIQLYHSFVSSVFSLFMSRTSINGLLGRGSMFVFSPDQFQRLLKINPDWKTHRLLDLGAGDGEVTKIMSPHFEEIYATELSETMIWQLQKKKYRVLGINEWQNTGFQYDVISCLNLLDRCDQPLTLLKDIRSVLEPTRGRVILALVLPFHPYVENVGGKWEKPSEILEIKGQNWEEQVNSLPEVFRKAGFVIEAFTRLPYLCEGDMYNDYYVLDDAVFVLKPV

What was measured:
Test in all cases: log2 fold change, soluble protein after heating vs DMSO (PISA); higher = thermal stabilisation; K562 cells, 10 uM, 30 min; active = over 0.2 and 3.5 SD of the protein, either way, in both replicates (recomputed)
erlotinib = compound: C#Cc1cccc(Nc2ncnc3cc(OCCOC)c(OCCOC)cc23)c1 [erlotinib]
How it was run: (§1)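 Aliquots of K562 cells (2×10^6 cells/mL) treated with 10 μM compound for 30 min were heated for 3 min over 48°C-58°C. After pooling and extraction in PBS with 0.5% NP-40 at 4°C, soluble protein from a 21,000xg, 90 min spin was quantified by TMTpro 16plex LC-MS/MS with channel sums equalised. Thermal stability is expressed against control samples, from duplicates, as a log2 fold change.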

[1] = compound: C1=CC(=C(C=C1Cl)C2=NC3=NC=CN=C3C(=N2)NC4=CC=NC=C4)F
How it was run: as §1

[2] = compound: C1=CC(=CC=C1C2=NC3=C(N2)C=C(C=C3)C(=O)N)OC4=CC=C(C=C4)Cl
How it was run: as §1

[3] = compound: C1CCN(C1)C(=O)NC2=CC=CC(=C2)NC3=NC=C(C(=N3)NCCC4=CN=CN4)Br
How it was run: as §1

[4] = compound: C1CN(CCC1(CC2=CC=C(C=C2)Cl)N)C3=NC=NC4=C3C=CN4
How it was run: as §1

[5] = compound: C/C(=N\NC(=O)C1=CC(=CC=C1)S(=O)(=O)N2CCOCC2)/C3=C(C=CC(=C3)Cl)O
How it was run: as §1

[6] = compound: C1=CC2=C(C=CC(=C2)/C=C\3/C(=O)NC(=NCC4=CC=CS4)S3)N=C1
How it was run: as §1

[7] = compound: C1=CC=C(C=C1)C2=NC(=C(N2)C3=CC=NC=C3)C4=CC(=C(C=C4)Cl)O
How it was run: as §1

[8] = compound: C1=CC=C2C(=C1)C3=NNC4=CC=CC(=C43)C2=O
How it was run: as §1

[9] = compound: C1=CC2=NC=CN=C2C=C1/C=C/3\C(=O)NC(=O)S3
How it was run: as §1

Measured: log2 fold change

MEF2A (UniProt Q02078)
inactive: erlotinib 0.03 | [1] -0.136 | [2] 0.04 | [3] -0.004 | [4] 0.071

METTL17 isoform 3 (UniProt Q9H7H0)
inactive: [5] -0.052 | [6] 0.021 | [7] -0.138 | [8] 0.066

MED26 (UniProt O95402)
inactive: [5] 0.149 | [6] -0.279 | [7] -0.02 | [8] 0.121

MEGF10 (UniProt Q96KG7)
inactive: [3] 0.096 | [4] 0.068

MED6 (UniProt O75586)
inactive: erlotinib 0.054 | [1] -0.341 | [2] 0.099 | [9] 0.101

MAST2 (UniProt Q6P0Q8)
inactive: [7] -0.074

MFSD4B (UniProt Q5TF39)
inactive: [5] -0.033 | [1] 0.089 | [6] -0.04 | [9] 0.078 | [7] 0.186 | [8] 0.032 | [3] -0.06 | [4] 0.095

METTL26 (UniProt Q96S19)
inactive: erlotinib 0.181 | [2] -0.097 | [9] -0.273

MBTPS2 (UniProt O43462)
inactive: erlotinib 0.057 | [1] -0.205 | [2] -0.03 | [7] -0.097 | [3] -0.053 | [4] 0.043

MED19 (UniProt A0JLT2)
inactive: [1] -0.185 | [9] 0.05 | [7] -0.052

MED29 (UniProt Q9NX70)
inactive: erlotinib -0.016 | [5] 0.008 | [2] 0.062 | [6] -0.089 | [8] -0.015

MED9 (UniProt Q9NWA0)
inactive: [7] 0.145

Nine successive entries from above:
MEF2A (UniProt Q02078)
inactive: erlotinib 0.03 | [1] -0.136 | [2] 0.04 | [3] -0.004 | [4] 0.071

METTL17 isoform 3 (UniProt Q9H7H0)
inactive: [5] -0.052 | [6] 0.021 | [7] -0.138 | [8] 0.066

MED26 (UniProt O95402)
inactive: [5] 0.149 | [6] -0.279 | [7] -0.02 | [8] 0.121

MEGF10 (UniProt Q96KG7)
inactive: [3] 0.096 | [4] 0.068

MED6 (UniProt O75586)
inactive: erlotinib 0.054 | [1] -0.341 | [2] 0.099 | [9] 0.101

MAST2 (UniProt Q6P0Q8)
inactive: [7] -0.074

MFSD4B (UniProt Q5TF39)
inactive: [5] -0.033 | [1] 0.089 | [6] -0.04 | [9] 0.078 | [7] 0.186 | [8] 0.032 | [3] -0.06 | [4] 0.095

METTL26 (UniProt Q96S19)
inactive: erlotinib 0.181 | [2] -0.097 | [9] -0.273

MBTPS2 (UniProt O43462)
inactive: erlotinib 0.057 | [1] -0.205 | [2] -0.03 | [7] -0.097 | [3] -0.053 | [4] 0.043

More results

MCM10 (UniProt Q7L590)
inactive: erlotinib -0.066 | [1] 0.205 | [2] 0.039 | [9] -0.054 | [3] -0.153 | [4] 0.125

MFSD9 (UniProt Q8NBP5)
inactive: erlotinib -0.171 | [2] 0.024

MEX3B (UniProt Q6ZN04)
inactive: erlotinib 0.052 | [2] 0.061 | [9] 0.09 | [7] 0.163 | [3] 0.099 | [4] -0.267

MED11 (UniProt Q9P086)
inactive: erlotinib -0.086 | [2] -0.029 | [3] 0 | [4] -0.192

MEGF9 (UniProt Q9H1U4)
inactive: erlotinib -0.104 | [2] 0.045 | [9] -0.219 | [3] -0.159 | [4] -0.091

MED13L (UniProt Q71F56)
inactive: erlotinib -0.071 | [1] -0.03 | [2] 0.018

MCOLN3 (UniProt Q8TDD5)
inactive: erlotinib 0.244 | [2] -0.016 | [9] 0.112 | [7] -0.049 | [3] 0.053 | [4] 0.107

MEGF8 (UniProt Q7Z7M0)
inactive: [5] 0.024 | [6] 0.171 | [8] 0.001 | [3] 0.108 | [4] 0

MFSD11 (UniProt O43934)
inactive: [5] 0.001 | [1] 0.007 | [6] 0.047 | [9] 0.043 | [8] -0.067 | [3] 0.06 | [4] 0.219

MCRIP2 (UniProt Q9BUT9)
inactive: erlotinib 0.015 | [1] 0.113 | [2] 0.043 | [9] 0.022 | [7] 0.066 | [3] -0.456 | [4] -0.069

MDK (UniProt P21741)
inactive: erlotinib -0.58 | [5] -0.044 | [2] 0.029 | [6] -0.079 | [9] 0.081 | [8] -0.302 | [3] 0.038 | [4] -0.004

METTL15 (UniProt A6NJ78)
inactive: [5] 0.305 | [1] 0.124 | [6] 0.178 | [9] 0.012 | [8] -0.048 | [3] -0.194 | [4] -0.091

MAU2 (UniProt Q9Y6X3)
inactive: erlotinib 0.113 | [2] -0.011 | [7] 0.048 | [3] -0.085 | [4] 0.039

MED31 (UniProt Q9Y3C7)
inactive: [7] -0.02

MED21 (UniProt Q13503)
inactive: [5] -0.006 | [6] 0.155 | [7] 0.129 | [8] 0.059 | [3] -0.18 | [4] 0.09

MFHAS1 (UniProt Q9Y4C4)
inactive: [5] -0.43 | [6] 0.17 | [9] -0.036 | [7] -0.102 | [8] 0.008 | [3] 0.139 | [4] 0.136

MBNL2 (UniProt Q5VZF2)
inactive: erlotinib 0.132 | [5] -0.013 | [2] -0.053 | [6] -0.053 | [7] -0.027 | [8] -0.013

MGRN1 isoform 2 (UniProt O60291)
active: [6] -0.544
inactive: erlotinib 0.016 | [5] 0.079 | [2] 0 | [9] 0.004 | [7] -0.095 | [8] 0.073 | [3] 0.008 | [4] 0.227

MED13 (UniProt Q9UHV7)
inactive: [5] 0.03 | [1] -0.015 | [6] 0.003 | [9] -0.045 | [7] 0.009 | [8] -0.032 | [3] -0.109 | [4] 0.037

MEX3C (UniProt Q5U5Q3)
inactive: [7] -0.006

METTL9 (UniProt Q9H1A3)
inactive: erlotinib -0.183 | [5] -0.013 | [2] 0.008 | [6] -0.105 | [9] 0.045 | [7] 0.033 | [8] -0.05 | [3] -0.02 | [4] -0.083
